These are yes or no findings as the source states them, for the method shown. For part of these data: In cells and extracts the contact can be indirect. Some entries that bind do so weakly or less than the wild type. For part of these data: Sequences can lack the tags named with a protein.
T1: Lcb1, internally 3xFLAG-tagged after P9 (S. cerevisiae) (UniProt P25045)
T1 sequence: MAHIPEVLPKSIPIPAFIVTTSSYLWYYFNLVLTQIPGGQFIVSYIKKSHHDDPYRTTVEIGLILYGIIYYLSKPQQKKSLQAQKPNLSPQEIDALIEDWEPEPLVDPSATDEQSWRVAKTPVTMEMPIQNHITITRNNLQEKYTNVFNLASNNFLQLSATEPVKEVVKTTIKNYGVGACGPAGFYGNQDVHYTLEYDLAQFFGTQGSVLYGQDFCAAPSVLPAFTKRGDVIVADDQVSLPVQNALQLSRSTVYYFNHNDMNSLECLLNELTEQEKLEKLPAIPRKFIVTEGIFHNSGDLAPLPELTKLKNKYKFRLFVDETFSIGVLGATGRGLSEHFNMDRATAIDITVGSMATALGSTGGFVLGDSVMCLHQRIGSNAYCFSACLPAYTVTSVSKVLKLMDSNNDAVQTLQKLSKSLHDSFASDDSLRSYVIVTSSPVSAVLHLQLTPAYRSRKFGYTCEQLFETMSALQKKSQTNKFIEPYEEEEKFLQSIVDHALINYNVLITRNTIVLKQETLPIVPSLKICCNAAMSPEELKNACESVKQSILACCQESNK

Sequences of proteins named here, by UniProt entry; tags and fusion partners are left off. A change or cut given only in a name is not applied to a line headed by its entry. A line that says so, or that is headed by a name, gives the form on record, which may keep a tag or linker.
UniProt P53224: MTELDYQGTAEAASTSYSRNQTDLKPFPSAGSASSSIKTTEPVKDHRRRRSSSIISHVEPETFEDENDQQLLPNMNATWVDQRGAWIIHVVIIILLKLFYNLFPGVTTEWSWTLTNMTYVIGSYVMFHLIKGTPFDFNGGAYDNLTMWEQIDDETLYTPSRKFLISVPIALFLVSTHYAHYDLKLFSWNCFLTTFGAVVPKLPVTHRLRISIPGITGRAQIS
Orm1 with S51, S52 and S53 mutated to alanine (ORM1^AAA) (P53224, form named): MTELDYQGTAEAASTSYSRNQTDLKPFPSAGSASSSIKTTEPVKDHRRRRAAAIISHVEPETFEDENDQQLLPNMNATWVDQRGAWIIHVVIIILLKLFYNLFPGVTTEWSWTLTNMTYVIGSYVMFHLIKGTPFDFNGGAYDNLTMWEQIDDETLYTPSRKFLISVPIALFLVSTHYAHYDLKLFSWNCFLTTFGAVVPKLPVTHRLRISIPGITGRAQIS

T2: Lcb2 (S. cerevisiae) (UniProt P40970)
T2 sequence (chain, PLP forms an internal aldimine with K366): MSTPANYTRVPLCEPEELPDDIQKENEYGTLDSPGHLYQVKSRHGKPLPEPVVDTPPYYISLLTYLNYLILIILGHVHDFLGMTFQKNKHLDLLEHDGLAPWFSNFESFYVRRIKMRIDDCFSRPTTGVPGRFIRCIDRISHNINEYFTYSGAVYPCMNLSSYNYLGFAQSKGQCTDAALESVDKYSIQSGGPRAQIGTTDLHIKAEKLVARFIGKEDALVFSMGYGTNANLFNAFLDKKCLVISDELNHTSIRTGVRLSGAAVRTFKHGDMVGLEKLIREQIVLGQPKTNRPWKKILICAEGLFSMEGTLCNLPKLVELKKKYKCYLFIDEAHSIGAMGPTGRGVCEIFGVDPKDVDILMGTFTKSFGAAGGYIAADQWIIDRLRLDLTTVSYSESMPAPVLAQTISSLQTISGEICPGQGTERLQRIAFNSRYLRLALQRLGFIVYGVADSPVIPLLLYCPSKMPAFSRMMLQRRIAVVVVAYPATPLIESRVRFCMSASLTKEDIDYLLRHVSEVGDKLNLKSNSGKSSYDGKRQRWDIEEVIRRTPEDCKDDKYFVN


Experiments:
[1] = target: T1, Lcb1, internally 3xFLAG-tagged after P9 (S. cerevisiae); experiment: cryo-EM structure; single-particle cryo-EM of the FLAG-purified complex in GDN, 10 mg/ml; one dataset gave a C2 symmetric SPOT dimer, a SPOT monomer and a SPOTS monomer with Sac1; both purified
Lcb2 (S. cerevisiae) = target: T2, Lcb2 (S. cerevisiae); experiment: as above
[2] = target: Lcb1, one FLAG-tagged and one ALFA-tagged copy in diploid cells (S. cerevisiae) (UniProt P25045); experiment: co-IP; pulldown from diploid yeast with one FLAG-tagged and one ALFA-tagged Lcb1, ALFA beads or Fab-Trap beads, western blot with anti-FLAG and anti-ALFA

Row | Molecule | binding [1] | binding (Lcb2 (S. cerevisiae)) | binding [2]
1 | Orm1 with S51, S52 and S53 mutated to alanine (ORM1^AAA) (from UniProt P53224 1-222) | binds | binds | 
2 | Lcb2 (enzyme, S. cerevisiae, PLP forms an internal aldimine with K366, Lcb2, catalytic subunit of serine palmitoyltransferase, S. cerevisiae; also called SPT subunit; source: S. cerevisiae, co-expressed with the other SPOTS subunits under the GAL1 promoter) MSTPANYTRVPLCEPEELPDDIQKENEYGTLDSPGHLYQVKSRHGKPLPEPVVDTPPYYISLLTYLNYLILIILGHVHDFLGMTFQKNKHLDLLEHDGLAPWFSNFESFYVRRIKMRIDDCFSRPTTGVPGRFIRCIDRISHNINEYFTYSGAVYPCMNLSSYNYLGFAQSKGQCTDAALESVDKYSIQSGGPRAQIGTTDLHIKAEKLVARFIGKEDALVFSMGYGTNANLFNAFLDKKCLVISDELNHTSIRTGVRLSGAAVRTFKHGDMVGLEKLIREQIVLGQPKTNRPWKKILICAEGLFSMEGTLCNLPKLVELKKKYKCYLFIDEAHSIGAMGPTGRGVCEIFGVDPKDVDILMGTFTKSFGAAGGYIAADQWIIDRLRLDLTTVSYSESMPAPVLAQTISSLQTISGEICPGQGTERLQRIAFNSRYLRLALQRLGFIVYGVADSPVIPLLLYCPSKMPAFSRMMLQRRIAVVVVAYPATPLIESRVRFCMSASLTKEDIDYLLRHVSEVGDKLNLKSNSGKSSYDGKRQRWDIEEVIRRTPEDCKDDKYFVN | binds |  | 
3 | Lcb1, one FLAG-tagged and one ALFA-tagged copy in diploid cells (enzyme, UniProt P25045 1-558) MAHIPEVLPKSIPIPAFIVTTSSYLWYYFNLVLTQIPGGQFIVSYIKKSHHDDPYRTTVEIGLILYGIIYYLSKPQQKKSLQAQKPNLSPQEIDALIEDWEPEPLVDPSATDEQSWRVAKTPVTMEMPIQNHITITRNNLQEKYTNVFNLASNNFLQLSATEPVKEVVKTTIKNYGVGACGPAGFYGNQDVHYTLEYDLAQFFGTQGSVLYGQDFCAAPSVLPAFTKRGDVIVADDQVSLPVQNALQLSRSTVYYFNHNDMNSLECLLNELTEQEKLEKLPAIPRKFIVTEGIFHNSGDLAPLPELTKLKNKYKFRLFVDETFSIGVLGATGRGLSEHFNMDRATAIDITVGSMATALGSTGGFVLGDSVMCLHQRIGSNAYCFSACLPAYTVTSVSKVLKLMDSNNDAVQTLQKLSKSLHDSFASDDSLRSYVIVTSSPVSAVLHLQLTPAYRSRKFGYTCEQLFETMSALQKKSQTNKFIEPYEEEEKFLQSIVDHALINYNVLITRNTIVLKQETLPIVPSLKICCNAAMSPEELKNACESVKQSILACCQESNK |  |  | binds weakly
4 | Tsc3 (protein, UniProt Q3E790 1-80) MTQHKSSMVYIPTTKEAKRRNGKSEGILNTIEEVVEKLYWTYYIHLPFYLMASFDSFFLHVFFLTIFSLSFFGILKYCFL |  | binds | 
5 | Sac1, PI4P phosphatase (enzyme, UniProt P32368 1-623) MTGPIVYVQNADGIFFKLAEGKGTNDAVIHLANQDQGVRVLGAEEFPVQGEVVKIASLMGFIKLKLNRYAIIANTVEETGRFNGHVFYRVLQHSIVSTKFNSRIDSEEAEYIKLLELHLKNSTFYFSYTYDLTNSLQRNEKVGPAASWKTADERFFWNHYLTEDLRNFAHQDPRIDSFIQPVIYGYAKTVDAVLNATPIVLGLITRRSIFRAGTRYFRRGVDKDGNVGNFNETEQILLAENPESEKIHVFSFLQTRGSVPIYWAEINNLKYKPNLVLGENSLDATKKHFDQQKELYGDNYLVNLVNQKGHELPVKEGYESVVHALNDPKIHYVYFDFHHECRKMQWHRVKLLIDHLEKLGLSNEDFFHKVIDSNGNTVEIVNEQHSVVRTNCMDCLDRTNVVQSVLAQWVLQKEFESADVVATGSTWEDNAPLLTSYQNLWADNADAVSVAYSGTGALKTDFTRTGKRTRLGAFNDFLNSASRYYQNNWTDGPRQDSYDLFLGGFRPHTASIKSPFPDRRPVYIQLIPMIICAALTVLGATIFFPKDRFTSSKNLLYFAGASIVLALSTKFMFKNGIQFVNWPKLVDVGFLVVHQTHDKEQQFKGLKYAQSPKFSKPDPLKRD |  | binds | 

Source: PMC10550967, “Structure of the ceramide-bound SPOTS complex” (Nature Communications, 2023)
